PubChem BioAssay AID1508597, Cure First | 2020
Test: 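Survival screen with siRNA in ovarian cancer cells derived from patients, with or without rucaparib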 (primary screen). Cells: human ovarian carcinoma lines grown from tumours: OCI-P5x (papillary serous) and OCI-C5x (clear cell). Reagents: siRNA pool against human genes, 1.25 pmol siRNA per well. Duration: 72 h or 96 h, depending on the cell culture. Treatment: rucaparib 20 µM (about IC30) or vehicle, present until read-out. Rucaparib or vehicle: Vehicle. Cell line: OCI-C5x (clear cell). Detection: 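ATP luminescence measured at 72 or 96 h according to the culture, then normalised and expressed as percent viability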. Scale: viability, normalised: higher = more viable cells remaining. Hit rule: 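a well counts as a hit if its normalised viability is under 80 percent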. Calls: active = viability under 80%; inactive = viability 80% or more.
This is an unselected part of the about 2,100 reagents, under one of the conditions tested. 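Calls flag viability under 80% in either arm, not effects specific to rucaparib; the reference for percent is not stated.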 Entries without a mark were called inactive. A reagent listed more than once was tested more than once; the source does not tell the runs apart. No sequences are given here. The record does not give: the 100% reference.

| gene | technical replicate | viability, normalised (%) |
| --- | --- | --- |
| MAP2K7 | 1 | 53.6 (active) |
| MAP2K7 | 1 | 53.8 (active) |
| MAP2K7 | 2 | 58.1 (active) |
| MAP2K7 | 2 | 64.3 (active) |
| MAP2K7 | 3 | 47.3 (active) |
| MAP2K7 | 3 | 58.9 (active) |
| ROCK2 | 1 | 61.7 (active) |
| ROCK2 | 2 | 61.1 (active) |
| ROCK2 | 3 | 52 (active) |
| PLCD1 | 1 | 45 (active) |
| PLCD1 | 2 | 41.9 (active) |
| PLCD1 | 3 | 37.6 (active) |
| CHMP4A | 1 | 47.3 (active) |
| CHMP4A | 2 | 50.5 (active) |
| CHMP4A | 3 | 57.1 (active) |
| GRK5 | 1 | 72.5 (active) |
| GRK5 | 2 | 59 (active) |
| GRK5 | 3 | 59.5 (active) |
| PIP4K2A | 1 | 60.6 (active) |
| PIP4K2A | 2 | 74.3 (active) |
| PIP4K2A | 3 | 81.7 |
| SMARCC1 | 1 | 50.2 (active) |
| SMARCC1 | 2 | 52.1 (active) |
| SMARCC1 | 3 | 54.2 (active) |
| BRD10 | 1 | 28.6 (active) |
| BRD10 | 2 | 23 (active) |
| BRD10 | 3 | 37.4 (active) |
| BRD1 | 1 | 37.9 (active) |
| BRD1 | 2 | 52.3 (active) |
| BRD1 | 3 | 26.6 (active) |
| ITPKB | 1 | 39.9 (active) |
| ITPKB | 2 | 46.9 (active) |
| ITPKB | 3 | 37.7 (active) |
| AGRN | 1 | 37.4 (active) |
| AGRN | 2 | 49.2 (active) |
| AGRN | 3 | 53.1 (active) |
| CDK3 | 1 | 64 (active) |
| CDK3 | 2 | 60.3 (active) |
| CDK3 | 3 | 57.1 (active) |
| CAMKK2 | 1 | 60.5 (active) |
| CAMKK2 | 2 | 64.9 (active) |
| CAMKK2 | 3 | 59.6 (active) |
| STK24 | 1 | 55.2 (active) |
| STK24 | 2 | 70.1 (active) |
| STK24 | 3 | 50.2 (active) |
| ERCC5 | 1 | 56.5 (active) |
| ERCC5 | 2 | 55.6 (active) |
| ERCC5 | 3 | 58.3 (active) |
| CHMP4C | 1 | 41.1 (active) |
| CHMP4C | 2 | 51.3 (active) |
| CHMP4C | 3 | 40 (active) |
| CAMKK1 | 1 | 63.1 (active) |
| CAMKK1 | 2 | 46.9 (active) |
| CAMKK1 | 3 | 41.9 (active) |
| REV3L | 1 | 38.5 (active) |
| REV3L | 2 | 37.8 (active) |
| REV3L | 3 | 50.5 (active) |
| TTF2 | 1 | 59.2 (active) |
| TTF2 | 2 | 71 (active) |
| TTF2 | 3 | 74.5 (active) |
| NCOA3 | 1 | 48.3 (active) |
| NCOA3 | 2 | 38.2 (active) |
| NCOA3 | 3 | 42 (active) |
| CLK4 | 1 | 72 (active) |
| CLK4 | 2 | 55.9 (active) |
| CLK4 | 3 | 54.4 (active) |
| CDK14 | 1 | 78.7 (active) |
| CDK14 | 2 | 67.2 (active) |
| CDK14 | 3 | 69.5 (active) |
| NCOR1 | 1 | 30.6 (active) |
| NCOR1 | 2 | 36.9 (active) |
| NCOR1 | 3 | 38.3 (active) |
| TRIO | 1 | 78.8 (active) |
| TRIO | 2 | 60.7 (active) |
| TRIO | 3 | 59.1 (active) |

Laid out differently: entries from further up.
{"gene": "CAMKK2", "technical replicate": "3", "viability, normalised (%)": "59.6 (active)"}
{"gene": "STK24", "technical replicate": "1", "viability, normalised (%)": "55.2 (active)"}
{"gene": "STK24", "technical replicate": "2", "viability, normalised (%)": "70.1 (active)"}
{"gene": "STK24", "technical replicate": "3", "viability, normalised (%)": "50.2 (active)"}
{"gene": "ERCC5", "technical replicate": "1", "viability, normalised (%)": "56.5 (active)"}
{"gene": "ERCC5", "technical replicate": "2", "viability, normalised (%)": "55.6 (active)"}
{"gene": "ERCC5", "technical replicate": "3", "viability, normalised (%)": "58.3 (active)"}
{"gene": "CHMP4C", "technical replicate": "1", "viability, normalised (%)": "41.1 (active)"}
{"gene": "CHMP4C", "technical replicate": "2", "viability, normalised (%)": "51.3 (active)"}
{"gene": "CHMP4C", "technical replicate": "3", "viability, normalised (%)": "40 (active)"}
{"gene": "CAMKK1", "technical replicate": "1", "viability, normalised (%)": "63.1 (active)"}
{"gene": "CAMKK1", "technical replicate": "2", "viability, normalised (%)": "46.9 (active)"}
